Assay results taken from PubChem BioAssay AID540256 (National Center for Advancing Translational Sciences (NCATS), 2011).
Among all 300,000 compounds or so, about 3,700 (1.2%) were called active. The inconclusive results got no clear call from the source; some entries with a clear call stand among them for comparison. Calls come from the whole dose curve; tested in HEK293 cells. Potencies of inconclusive entries are doubtful fits and often do not repeat.

Experiment: qHTS for Inhibitors of binding or entry into cells for Lassa Virus; note: nearly all actives have a fitted effect of over 50% in size
Details: Lassa virus pseudotype entry inhibition, cell reporter; activity change, negative = inhibition: at 37.9 µM (top of the series) unless noted
% is set by controls: 0 for no effect and ±100 for the full control effect; potency is the fitted concentration of half-maximal effect.

Compound | Potency | activity change, negative = inhibition
Cc1cc(C(=O)NNC(=O)c2sccc2C)c(C)o1 | inconclusive: 1.26 µM [activator, single point] | 
O=S(=O)(C=C(c1ccccc1)c1ccccc1)c1ccccc1 | inconclusive: 35.5 µM [inhibitor, single point] | 
COc1ccc2cc(CNc3ccc(C)cc3)c(=O)n(CC(=O)Nc3ccc(C)cc3Cl)c2c1 |  | inactive: 2% [at 46.1 µM]
CCCN(CCC)C(=O)CC(c1ccccc1)c1cc(C)ccc1O (stereo not drawn) | inconclusive: 25.9 µM [inhibitor, single point] | 
CCN(CC)c1ccc(NC(=O)COc2ccc(-n3cnnn3)cc2)cc1 |  | inactive: -3.15% [at 46.1 µM]
CCCCOc1ccccc1C(=O)N(Cc1sccc1C)C1CCS(=O)(=O)C1 (stereo not drawn) |  | inactive: 8.18% [at 46.1 µM]
CCOc1ccc(NC(=O)CSc2c3c(nc4ccccc24)CCCC3)cc1 | inconclusive: 35.5 µM [inhibitor, single point] | 
C[C@H](c1ccccc1)N1C[C@@H](COCc2ccccc2)Oc2cccc(F)c2S1(=O)=O | inconclusive: 0.0014 µM [inhibitor, full curve, poor fit] | 
C/[N+]([O-])=C\C1C(=O)CCCC1=O | inconclusive: 3.16 µM [inhibitor, partial curve, poor fit] | 
COc1ccc(NC(=O)c2c(C)nn(-c3ccccc3)c2Cl)cc1 | inconclusive: 15.8 µM [activator, partial curve, poor fit] | 
CCOc1ccccc1C(=O)Nc1cccc2cccnc12 |  | inactive: 4.4% [at 46.1 µM]
Cc1ccc(N2CC(C(=O)NCc3ccc4c(c3)OCO4)CC2=O)cc1C (stereo not drawn) | inconclusive: 6.51 µM [inhibitor, single point] | 
N#CC1=C(N)Oc2cc(N)ccc2C1c1ccccc1 (stereo not drawn) | inconclusive: 35.5 µM [inhibitor, single point] | 
Cc1cccc(C(=O)Nc2ccc(N3CC=C(c4ccccc4C)CC3)c(C(=O)O)c2)c1 | inconclusive: 7.08 µM [activator, partial curve] | 
CC1CCCCN1S(=O)(=O)c1ccc(-n2cnnn2)cc1 (stereo not drawn) |  | inactive: 11.4%
Cc1sc2ncnc(NCCc3ccc(S(N)(=O)=O)cc3)c2c1C | inconclusive: 10 µM [inhibitor, partial curve, poor fit] | 
COc1ccc(-c2cn3cc(C)ccc3n2)cc1F | inconclusive: 11.2 µM [inhibitor, partial curve, poor fit] | 
Nc1ccc(C(=O)OCC(=O)N2c3ccccc3Sc3ccccc32)cc1[N+](=O)[O-] | active: 15.8 µM | 
CCCCN(CCCC)S(=O)(=O)c1ccc(NC(=O)Cc2cccs2)cc1 | active: 9.2 µM | 
Cc1ccc(OCC(=O)O/N=C(\N)c2ccccn2)cc1C | inconclusive: 25.1 µM [inhibitor, single point] | 
C=CCNc1ncnc2c1cnn2-c1ccc(Cl)cc1 |  | inactive: 6.88%
COc1ccc(CCNC(=O)c2c(C)nn(CC(C)C)c2Cl)cc1OC | inconclusive: 14.1 µM [inhibitor, single point] | 

Sorted by length of the SMILES (smallest number first): some entries from above
Compound | Potency | activity change, negative = inhibition
CCOc1ccccc1C(=O)Nc1cccc2cccnc12 |  | inactive: 4.4% [at 46.1 µM]
CCCCOc1ccccc1C(=O)N(Cc1sccc1C)C1CCS(=O)(=O)C1 (stereo not drawn) |  | inactive: 8.18% [at 46.1 µM]
Cc1cccc(C(=O)Nc2ccc(N3CC=C(c4ccccc4C)CC3)c(C(=O)O)c2)c1 | inconclusive: 7.08 µM [activator, partial curve] | 

Additional results.

Compound | Potency | activity change, negative = inhibition
CNC(=S)N/N=C/c1c(C)c(C(=O)c2ccc(F)cc2)n2ccccc12 |  | inactive: -22.8%
COc1c(C=O)c2c(c(OC)c1OC)-c1ccc(OC)c(=O)cc1C(NC(C)=O)CC2 (stereo not drawn) | inconclusive: 0.355 µM [inhibitor, partial curve, poor fit] | 
C/C(=N\NC(N)=S)c1ccc2c(c1)OCCO2 |  | inactive: -26.9%
CN(C)/C=C/C(=O)/C=C/c1cn(-c2ncc(C(F)(F)F)cc2Cl)c2ccccc12 | inconclusive: 22.4 µM [inhibitor, single point] | 
COc1cc(NC(=O)CN2CCCN(Cc3cccc(F)c3)S2(=O)=O)cc(OC)c1 |  | inactive: -2.84% [at 46.1 µM]
O=c1[nH]c(CN2CCN(c3ccccc3)CC2)nc2scc(-c3ccccc3)c12 | inconclusive: 5.62 µM [inhibitor, partial curve, poor fit] | 
CC(=O)NC1=NN(C(C)=O)C(c2ccc(C(C)C)cc2)S1 (stereo not drawn) |  | inactive: 10.1%
CC(C)Oc1ccc(C(=O)N(Cc2ccc(N(C)C)cc2)Cc2ccco2)cc1 | inconclusive: 1 µM [inhibitor, full curve, poor fit] | 
COC(=O)Cc1ccc(NC(=O)c2ccccc2Cl)cc1 | inconclusive: 22.4 µM [inhibitor, single point] | 
Cc1ccc(C(=O)OCC(=O)Nc2ccc3c(c2)OCO3)cc1S(=O)(=O)N1CCOCC1 | inconclusive: 0.103 µM [inhibitor, full curve, poor fit] | 
O=C(Nc1nc2ccc(F)cc2s1)c1ccccn1 | inconclusive: 6.31 µM [inhibitor, partial curve, poor fit] | 
Cc1ccc(S(=O)(=O)N2CCCCC2)cc1NC(=O)c1ccc2ccccc2n1 | inconclusive: 20.6 µM [activator, partial curve, poor fit] | 
O=C(O)C1C2C=CC(C3CC23)C1C(=O)NCCc1ccccc1 (stereo not drawn) | inconclusive: 12.6 µM [activator, single point] | 
COc1ccc(C(=O)NC(c2ccccc2Cl)c2cc(Cl)c3cccnc3c2O)cc1 (stereo not drawn) | inconclusive: 8.91 µM [inhibitor, partial curve, poor fit] | 
CCN(CC)C(=O)Cn1nnc(-c2ccc(C)o2)n1 | inconclusive: 5.17 µM [inhibitor, partial curve, poor fit] | 
COc1ccccc1CNC(=O)CCS(=O)(=O)c1ccc2c(c1)oc(=O)n2C | inconclusive: 11.2 µM [activator, partial curve, poor fit] | 
CCOc1ccc(CNC(=O)CSc2c3c(nc4cc(Cl)ccc24)CCCC3)cc1 | inconclusive: 3.16 µM [inhibitor, single point] | 
CN(C)C(=O)Oc1ccc(OCc2nc3ccccc3[nH]2)cc1 | active: 9.2 µM | 
O=C(NCCc1ccccc1)c1ccc2c(c1)nc1n2CCOC1 |  | inactive: 2.74% [at 46.1 µM]
Cc1ccc(NC(=O)C(=O)N2CCCC2)cc1Cl | inconclusive: 0.291 µM [activator, full curve, poor fit] | 
O=C(CN1CCOCC1)Nc1nc(-c2ccc3c(c2)CCN3S(=O)(=O)c2ccccc2)cs1 | inconclusive: 12.6 µM [inhibitor, partial curve, poor fit] | 
